Reference: PMC10165269
These are yes or no findings as the source states them, for the method shown. Binding seen in cells or lysates may run through a third protein. Some binding calls cover weakened binding; strength is not graded here. Where a sequence is shown, tags or fusion partners need not be part of it.

By UniProt entry, the sequences of proteins in these tests, tags left out.
UniProt Q7Z434: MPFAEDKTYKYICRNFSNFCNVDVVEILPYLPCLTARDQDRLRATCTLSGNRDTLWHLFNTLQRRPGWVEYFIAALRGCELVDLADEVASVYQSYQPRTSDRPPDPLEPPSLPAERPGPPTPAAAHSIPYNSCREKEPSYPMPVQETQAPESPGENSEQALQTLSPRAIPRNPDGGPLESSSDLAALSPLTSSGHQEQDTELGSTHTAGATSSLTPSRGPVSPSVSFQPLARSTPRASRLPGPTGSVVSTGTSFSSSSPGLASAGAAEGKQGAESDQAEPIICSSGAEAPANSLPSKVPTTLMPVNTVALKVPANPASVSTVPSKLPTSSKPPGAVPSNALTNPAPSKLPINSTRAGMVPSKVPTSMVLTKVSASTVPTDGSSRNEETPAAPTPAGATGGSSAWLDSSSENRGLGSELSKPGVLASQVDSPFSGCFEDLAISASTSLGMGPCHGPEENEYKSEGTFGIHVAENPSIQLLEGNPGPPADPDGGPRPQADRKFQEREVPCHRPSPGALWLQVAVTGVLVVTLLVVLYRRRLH

Molecular target: HA-tagged MAVS (human) (UniProt Q7Z434)
Test: co-IP; 293T cells cotransfected with HA-tagged MAVS and Flag-tagged TRIM28 or its mutants, 48 h; RIPA lysate; immunoprecipitated with an anti-HA antibody on Protein A/G magnetic beads, 2 h at 4 °C; immunoblot with an anti-Flag antibody

binding: binds
B1: TRIM28-CA (C65A/C68A), Flag-tagged (protein, UniProt Q13263 1-835)
chain: MAASAAAASAAAASAASGSPGPGEGSAGGEKRSTAPSAAASASASAAASSPAGGGAEALELLEHAGVARERLRPEREPRLLPCLHSACSACLGPAAPAAANSSGDGGAAGDGTVVDCPVCKQQCFSKDIVENYFMRDSGSKAATDAQDANQCCTSCEDNAPATSYCVECSEPLCETCVEAHQRVKYTKDHTVRSTGPAKSRDGERTVYCNVHKHEPLVLFCESCDTLTCRDCQLNAHKDHQYQFLEDAVRNQRKLLASLVKRLGDKHATLQKSTKEVRSSIRQVSDVQKRVQVDVKMAILQIMKELNKRGRVLVNDAQKVTEGQQERLERQHWTMTKIQKHQEHILRFASWALESDNNTALLLSKKLIYFQLHRALKMIVDPVEPHGEMKFQWDLNAWTKSAEAFGKIVAERPGTNSTGPAPMAPPRAPGPLSKQGSGSSQPMEVQEGYGFGSGDDPYSSAEPHVSGVKRSRSGEGEVSGLMRKVPRVSLERLDLDLTADSQPPVFKVFPGSTTEDYNLIVIERGAAAAATGQPGTAPAGTPGAPPLAGMAIVKEEETEAAIGAPPTATEGPETKPVLMALAEGPGAEGPRLASPSGSTSSGLEVVAPEGTSAPGGGPGTLDDSATICRVCQKPGDLVMCNQCEFCFHLDCHLPALQDVPGEEWSCSLCHVLPDLKEEDGSLSLDGADSTGVVAKLSPANQRKCERVLLALFCHEPCRPLHQLATDSTFSLDQPGGTLDLTLIRARLQEKLSPPYSSPQEFAQDVGRMFKQFNKLTEDKADVQSIIGLQRFFETRMNEAFGDTKFSAVLVEPPPMSLPGAGLSSQELSGGPGDGP
